Experimental data from paper PMC5496436.
No constants are given. Whether binding was seen depends on the method and setting. Binding seen in cells or lysates may run through a third protein. Here binding means that the protein was enriched with, or labelled near, the bait; the list need not be complete.

Chains of the proteins cited; added tags and fusions are not shown.
UniProt O75444: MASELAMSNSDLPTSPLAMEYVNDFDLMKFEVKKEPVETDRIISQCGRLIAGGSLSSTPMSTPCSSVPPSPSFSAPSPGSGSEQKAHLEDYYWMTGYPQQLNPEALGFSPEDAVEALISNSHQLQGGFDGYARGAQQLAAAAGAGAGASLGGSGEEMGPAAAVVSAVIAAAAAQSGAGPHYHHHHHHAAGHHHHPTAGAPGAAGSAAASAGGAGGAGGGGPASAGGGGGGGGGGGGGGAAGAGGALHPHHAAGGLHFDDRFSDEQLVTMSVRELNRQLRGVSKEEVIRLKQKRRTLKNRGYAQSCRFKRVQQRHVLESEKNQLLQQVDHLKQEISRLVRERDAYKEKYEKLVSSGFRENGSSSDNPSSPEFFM

Molecular target: c-Maf (bait of the AP/MS) (UniProt O75444)
Experiment: affinity purification with mass spectrometry; affinity purification with a c-Maf specific antibody, then LC/MS/MS; done as in ref. 12, cells not told

binding: binds
B1: UBE2O (found by MS in the c-Maf co-immunoprecipitates) (enzyme, UniProt Q9C0C9 1-1292)
chain: MADPAAPTPAAPAPAQAPAPAPEAVPAPAAAPVPAPAPASDSASGPSSDSGPEAGSQRLLFSHDLVSGRYRGSVHFGLVRLIHGEDSDSEGEEEGRGSSGCSEAGGAGHEEGRASPLRRGYVRVQWYPEGVKQHVKETKLKLEDRSVVPRDVVRHMRSTDSQCGTVIDVNIDCAVKLIGTNCIIYPVNSKDLQHIWPFMYGDYIAYDCWLGKVYDLKNQIILKLSNGARCSMNTEDGAKLYDVCPHVSDSGLFFDDSYGFYPGQVLIGPAKIFSSVQWLSGVKPVLSTKSKFRVVVEEVQVVELKVTWITKSFCPGGTDSVSPPPSVITQENLGRVKRLGCFDHAQRQLGERCLYVFPAKVEPAKIAWECPEKNCAQGEGSMAKKVKRLLKKQVVRIMSCSPDTQCSRDHSMEDPDKKGESKTKSEAESASPEETPDGSASPVEMQDEGAEEPHEAGEQLPPFLLKEGRDDRLHSAEQDADDEAADDTDDTSSVTSSASSTTSSQSGSGTSRKKSIPLSIKNLKRKHKRKKNKITRDFKPGDRVAVEVVTTMTSADVMWQDGSVECNIRSNDLFPVHHLDNNEFCPGDFVVDKRVQSCPDPAVYGVVQSGDHIGRTCMVKWFKLRPSGDDVELIGEEEDVSVYDIADHPDFRFRTTDIVIRIGNTEDGAPHKEDEPSVGQVARVDVSSKVEVVWADNSKTIILPQHLYNIESEIEESDYDSVEGSTSGASSDEWEDDSDSWETDNGLVEDEHPKIEEPPIPPLEQPVAPEDKGVVISEEAATAAVQGAVAMAAPMAGLMEKAGKDGPPKSFRELKEAIKILESLKNMTVEQLLTGSPTSPTVEPEKPTREKKFLDDIKKLQENLKKTLDNVAIVEEEKMEAVPDVERKEDKPEGQSPVKAEWPSETPVLCQQCGGKPGVTFTSAKGEVFSVLEFAPSNHSFKKIEFQPPEAKKFFSTVRKEMALLATSLPEGIMVKTFEDRMDLFSALIKGPTRTPYEDGLYLFDIQLPNIYPAVPPHFCYLSQCSGRLNPNLYDNGKVCVSLLGTWIGKGTERWTSKSSLLQVLISIQGLILVNEPYYNEAGFDSDRGLQEGYENSRCYNEMALIRVVQSMTQLVRRPPEVFEQEIRQHFSTGGWRLVNRIESWLETHALLEKAQALPNGVPKASSSPEPPAVAELSDSGQQEPEDGGPAPGEASQGSDSEGGAQGLASASRDHTDQTSETAPDASVPPSVKPKKRRKSYRSFLPEKSGYPDIGFPLFPLSKGFIKSIRGVLTQFRAALLEAGMPECTEDK
